Drawing on article PMC6335420, “The cell cycle regulator GpsB functions as cytosolic adaptor for multiple cell wall enzymes” (Nature Communications, 2019), this text covers binding for seven molecules.

Sequences of proteins named here, by UniProt entry; tags and fusion partners are left off. A change or cut given only in a name is not applied to a line headed by its entry.
UniProt B8DBQ3: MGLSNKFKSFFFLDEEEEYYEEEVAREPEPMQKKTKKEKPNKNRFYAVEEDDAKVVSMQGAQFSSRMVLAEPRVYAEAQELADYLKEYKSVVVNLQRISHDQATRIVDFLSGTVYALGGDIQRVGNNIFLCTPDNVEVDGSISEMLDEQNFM
UniProt A0A0H2ZMF9: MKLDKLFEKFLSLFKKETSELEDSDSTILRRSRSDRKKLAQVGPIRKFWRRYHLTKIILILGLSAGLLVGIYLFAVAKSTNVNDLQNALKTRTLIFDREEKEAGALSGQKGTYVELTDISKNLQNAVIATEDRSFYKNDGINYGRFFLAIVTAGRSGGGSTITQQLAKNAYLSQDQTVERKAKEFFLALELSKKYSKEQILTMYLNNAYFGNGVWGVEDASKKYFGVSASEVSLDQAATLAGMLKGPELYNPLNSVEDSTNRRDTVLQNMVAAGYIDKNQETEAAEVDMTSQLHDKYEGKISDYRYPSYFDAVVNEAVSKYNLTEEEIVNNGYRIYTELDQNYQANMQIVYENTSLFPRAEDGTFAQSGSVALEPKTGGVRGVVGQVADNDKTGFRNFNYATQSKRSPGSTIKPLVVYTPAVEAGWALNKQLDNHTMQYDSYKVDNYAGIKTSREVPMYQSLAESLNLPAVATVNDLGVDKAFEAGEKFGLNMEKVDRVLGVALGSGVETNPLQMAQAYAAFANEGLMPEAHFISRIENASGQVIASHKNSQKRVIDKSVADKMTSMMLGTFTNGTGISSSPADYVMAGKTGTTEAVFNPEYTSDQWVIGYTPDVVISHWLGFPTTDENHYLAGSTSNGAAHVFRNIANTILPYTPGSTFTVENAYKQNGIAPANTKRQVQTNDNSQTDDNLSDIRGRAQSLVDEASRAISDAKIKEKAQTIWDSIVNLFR
UniProt Q8Y614: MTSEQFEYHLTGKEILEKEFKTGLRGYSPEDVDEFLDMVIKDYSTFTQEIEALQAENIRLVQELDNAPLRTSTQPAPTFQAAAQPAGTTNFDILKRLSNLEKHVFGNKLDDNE

These are yes or no findings as the source states them, for the method shown. For some of these results: Binding can be weak; no strength is given. For some of these results: Where a sequence is shown, tags or fusion partners need not be part of it. For some of these results: In cells and extracts the contact can be indirect.

The target of assay [1] is T1, SpMreC (BACTH fusion) (S. pneumoniae D39) (UniProt Q8DMY2).
T1 sequence: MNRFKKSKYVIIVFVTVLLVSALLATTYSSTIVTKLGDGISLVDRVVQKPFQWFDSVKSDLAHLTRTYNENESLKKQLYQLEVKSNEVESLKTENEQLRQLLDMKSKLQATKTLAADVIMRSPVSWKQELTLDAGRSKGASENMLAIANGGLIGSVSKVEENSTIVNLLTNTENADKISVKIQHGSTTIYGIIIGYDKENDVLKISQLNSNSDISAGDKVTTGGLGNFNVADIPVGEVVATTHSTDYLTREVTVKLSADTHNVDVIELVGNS
Put plainly: two-hybrid; BACTH, S. pneumoniae proteins fused to T18 and T25 in E. coli BTH101; LB agar with X-Gal, photographed after 36 or 40 h at 30 °C.

The target of assay [2] is LmSepF (L. monocytogenes) (UniProt B8DBQ3). Nature of the assay: two-hybrid; BACTH (L. monocytogenes proteins) in E. coli BTH101; LB agar with X-Gal and IPTG, photographs after 24 and 48 h at 30 °C.
Assay [3] has as its target T2, SpMreC-L-F3 (S. pneumoniae D39) (UniProt Q8DMY2).
T2 sequence: T1 sequence
Put plainly: co-IP; S. pneumoniae cells cross-linked with 0.1% paraformaldehyde, lysates on anti-FLAG magnetic beads, elution with 3X FLAG peptide, blots with anti-PBP2x or anti-GpsB serum.

The target in assay [4] is SpGpsB (BACTH fusion) (S. pneumoniae D39). Put plainly: two-hybrid; BACTH, S. pneumoniae proteins fused to T18 and T25 in E. coli BTH101; LB agar with X-Gal, photographed after 36 or 40 h at 30 °C.
The target of assay [5] is SpPBP2x-F3 (S. pneumoniae D39). Nature of the assay: co-IP; S. pneumoniae cells cross-linked with 0.1% paraformaldehyde, lysates on anti-FLAG magnetic beads, elution with 3X FLAG peptide, blots with anti-PBP2x or anti-GpsB serum.
For assay [6], the target named is SpStkP-F2 (S. pneumoniae D39). Described as above.
Assay [7] has as its target BsRodZ (BACTH fusion) (B. subtilis). Put plainly: two-hybrid; BACTH (B. subtilis proteins); co-transformants grown on nutrient agar plates.
The target of assay [8] is SpEzrA (BACTH fusion) (S. pneumoniae). Put plainly: two-hybrid; BACTH (S. pneumoniae proteins) in E. coli BTH101; LB agar with X-Gal, 30 °C, photographed after 24 and 40 h.
In assay [9] the target is SpStkP (BACTH fusion) (S. pneumoniae). Described as above.
The target of assay [10] is SpPBP2b (BACTH fusion) (S. pneumoniae D39). The assay is described as above.

Turning to “SpPBP2a (BACTH fusion) (from UniProt A0A0H2ZMF9 1-731)”, the binding entry in assay [1] is “binds”.

As to “LmGpsB (BACTH fusion) (from UniProt Q8Y614 1-113)”, the binding entry in assay [2] is given as “binds”.

As to SpPBP2x (native, in S. pneumoniae), in assay [3], the binding result was “binds”.

B1: SpMreC (BACTH fusion) (protein, UniProt Q8DMY2 1-272)
chain: T1 sequence
As to B1, the binding entry in assay [4] is given as “binds”.

B2: SpDivIVA (native, in S. pneumoniae) (protein, UniProt Q8CWP9 1-262)
chain: MPITSLEIKDKTFGTRFRGFDPEEVDEFLDIVVRDYEDLVRANHDKNLRIKSLEERLSYFDEIKDSLSQSVLIAQDTAERVKQAAHERSNNIIHQAEQDAQRLLEEAKYKANEILRQATDNAKKVAVETEELKNKSRVFHQRLKSTIESQLAIVESSDWEDILRPTATYLQTSDEAFKEVVSEVLGEPIPAPIEEEPIDMTRQFSQAEMEELQARIEVADKELSEFEAQIKQEVETPTPVVSPQVEEEPLLIQLAQCMKNQK
With B2, the binding entry in assay [5] is on record as “no binding”; in assay [6], “binds”.

B3: BsYrrS (BACTH fusion) (protein, UniProt O32031 1-233)
chain: MSNNQSRYENRDKRRKANLVLNILIAIVSILIVVVAANLFINSPSSKDVSKDSETAQKQESPASGKTEKKSDEDIKDSKKDTSDSEKDSEKSSDSDSKKDDSSSKKDDSDSDSSSDSAGDGLKDAKVTEGGSSSDVEKTYENPDWKAVGTEQTGEHAATYDSSSQDWAEMLKAISYATGVSTDNMTVLWLGNNGSPQDAKGKILDKATGNKYQVTITWVDEKGWKPTKVEKLK
As to B3, in assay [7], the binding result is reported as “binds”.

B4: SpGpsB (BACTH fusion) (protein, UniProt Q8DR57 1-109)
chain: MASIIFSAKDIFEQEFGREVRGYNKVEVDEFLDDVIKDYETYAALVKSLRQEIADLKEELTRKPKPSPVQAEPLEAAITSSMTNFDILKRLNRLEKEVFGKQILDNSDF
With B4, the binding result is given as “binds” in assay [8], “binds” in assay [9] and “no binding” in assay [10].
